# Values of other authors, collected in patent US11568956B2, “Methods for identifying inhibitors of amyloid protein aggregation” (Treventis Corporation, priority 2008, dated 2023).
# The chains behind the UniProt entries cited, without tags or fusion partners. Residues count along the entry.
# UniProt P05067, 672-711 limits assumed: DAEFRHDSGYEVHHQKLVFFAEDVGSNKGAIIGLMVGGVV
# Some entries share one result that the patent states for a list of compounds.
# Biological target: Aβ (Homo sapiens, UniProt P05067)
# Details: unit not in the table, μM; Masuda test set; read-out: Expt (IC50); cited from earlier work
row,Compound,IC50 [µM]
1,Oc1cc(O)c2c(c1)O[C@H](c1cc(O)c(O)c(O)c1)[C@H](O)C2 [epigallocatechin],< 7
2,O=c1cc(-c2ccc(Oc3c(O)cc4oc(-c5ccc(O)cc5)cc(=O)c4c3O)cc2)oc2cc(O)cc(O)c12 [hinokiflavone],< 7
